# Measured values: the supplement of paper PMC8728848
# Some of the results follow.
# B1: TIM-1 (Mus musculus), AAL35774 (protein)
# chain: MNQIQVFISGLILLLPGAVDSYVEVKGVVGHPVTLPCTYSTYRGITTTCWGRGQCPSSACQNTLIWTNGHRVTYQKSSRYNLKGHISEGDVSLTIENSVESDSGLYCCRVEIPGWFNDQKVTFSLQVKPEIPTRPPTRPTTTRPTATGRPTTISTRSTHVPTSIRVSTSTPPTSTHTWTHKPEPTTFCPHETTAEVTGIPSHTPTDWNGTVTSSGDTWSNHTEAIPPGKPQKNPTKGFYVGICIAALLLLLLVSTVAITRYILMKRKSASLSVVAFRVSKIEALQNAAVVHSRAEDNIYIVEDRP
# Experiments:
# Test in all cases: glycan array binding signal (z-score within array); higher = stronger binding
# Details in all cases: glycan notation: IUPAC condensed, linker removed
# [1] = target: Neu5Ac(a2-3)Gal(b1-4)GlcNAc(b1-6)[Gal(b1-3)]GalNAc
# Outline: (§1)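 The binding signal is a Z-score computed within each array. Data were drawn from 3228 arrays in the Consortium for Functional Glycomics database, restricted to those with a known protein sequence. Scores were averaged over arrays of the same protein sequence at different concentrations or buffers, and over linkers, and negative values can be taken as non-binding.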
# [2] = target: Neu5Ac(a2-3)Gal(b1-4)GlcNAc6S
# Outline: as §1
# [3] = target: Neu5Ac(a2-3)Gal(b1-4)[Fuc(a1-3)]GlcNAc
# Outline: as §1
# [4] = target: Neu5Ac(a2-3)Gal(b1-4)[Fuc(a1-3)]GlcNAc(b1-3)Gal
# Outline: as §1
# [5] = target: Neu5Ac(a2-3)Gal(b1-4)[Fuc(a1-3)]GlcNAc(b1-3)Gal(b1-4)GlcNAc
# Outline: as §1
# [6] = target: Neu5Ac(a2-3)Gal(b1-4)[Fuc(a1-3)]GlcNAc(b1-3)Gal(b1-4)[Fuc(a1-3)]GlcNAc(b1-3)Gal(b1-4)[Fuc(a1-3)]GlcNAc
# Outline: as §1
# [7] = target: Neu5Ac(a2-3)Gal(b1-4)[Fuc(a1-3)]GlcNAc6S
# Outline: as §1
# [8] = target: Neu5Ac(a2-3)Gal6S(b1-4)GlcNAc
# Outline: as §1
# [9] = target: Neu5Ac(a2-3)Gal6S(b1-4)[Fuc(a1-3)]GlcNAc
# Outline: as §1
# Neu5Ac(a2-3)GalNAc = target: Neu5Ac(a2-3)GalNAc
# Outline: as §1
# [10] = target: Neu5Ac(a2-3)GalNAc(b1-4)GlcNAc
# Outline: as §1
# [11] = target: Neu5Ac(a2-3)[GalNAc(b1-4)]Gal(b1-4)Glc
# Outline: as §1
# [12] = target: Neu5Ac(a2-3)[GalNAc(b1-4)]Gal(b1-4)GlcNAc
# Outline: as §1
# [13] = target: Neu5Ac(a2-3)[Neu5Ac(a2-6)]GalNAc
# Outline: as §1
# Neu5Ac(a2-6)Gal = target: Neu5Ac(a2-6)Gal
# Outline: as §1
# Neu5Ac(a2-6)Gal(b1-4)Glc = target: Neu5Ac(a2-6)Gal(b1-4)Glc
# Outline: as §1
# [14] = target: Neu5Ac(a2-6)Gal(b1-4)GlcNAc
# Outline: as §1
# [15] = target: Neu5Ac(a2-6)Gal(b1-4)GlcNAc(b1-2)Man(a1-3)[Neu5Ac(a2-6)Gal(b1-4)GlcNAc(b1-2)Man(a1-6)]Man(b1-4)GlcNAc(b1-4)GlcNAc
# Outline: as §1
# [16] = target: Neu5Ac(a2-6)Gal(b1-4)GlcNAc(b1-3)Gal(b1-4)GlcNAc
# Outline: as §1
# [17] = target: Neu5Ac(a2-6)Gal(b1-4)GlcNAc(b1-3)Gal(b1-4)[Fuc(a1-3)]GlcNAc(b1-3)Gal(b1-4)[Fuc(a1-3)]GlcNAc
# Outline: as §1
# [18] = target: Neu5Ac(a2-6)Gal(b1-4)GlcNAc6S
# Outline: as §1
# Neu5Ac(a2-6)GalNAc = target: Neu5Ac(a2-6)GalNAc
# Outline: as §1
# [19] = target: Neu5Ac(a2-6)GalNAc(b1-4)GlcNAc
# Outline: as §1
# Neu5Ac(a2-8)Neu5Ac = target: Neu5Ac(a2-8)Neu5Ac
# Outline: as §1
# [20] = target: Neu5Ac(a2-8)Neu5Ac(a2-3)Gal(b1-4)Glc
# Outline: as §1
# [21] = target: Neu5Ac(a2-8)Neu5Ac(a2-3)[GalNAc(b1-4)]Gal(b1-4)Glc
# Outline: as §1
# [22] = target: Neu5Ac(a2-8)Neu5Ac(a2-8)Neu5Ac
# Outline: as §1
# [23] = target: Neu5Ac(a2-8)Neu5Ac(a2-8)Neu5Ac(a2-3)Gal(b1-4)Glc
# Outline: as §1
# [24] = target: Neu5Ac(a2-8)Neu5Ac(a2-8)Neu5Ac(a2-3)[GalNAc(b1-4)]Gal(b1-4)Glc
# Outline: as §1
# [25] = target: Neu5Ac(a2-8)Neu5Ac(a2-8)Neu5Ac(a2-8)Neu5Ac(a2-3)[GalNAc(b1-4)]Gal(b1-4)Glc
# Outline: as §1
# Neu5Ac(b1-6)GalNAc = target: Neu5Ac(b1-6)GalNAc
# Outline: as §1
# [26] = target: Neu5Ac(b2-6)Gal(b1-4)GlcNAc
# Outline: as §1
# [27] = target: Neu5Ac9Ac(a2-6)Gal(b1-4)GlcNAc
# Outline: as §1
# [28] = target: Neu5Gc(a2-3)Gal(b1-3)GlcNAc
# Outline: as §1
# [29] = target: Neu5Gc(a2-3)Gal(b1-3)[Fuc(a1-4)]GlcNAc
# Outline: as §1
# Neu5Gc(a2-3)Gal(b1-4)Glc = target: Neu5Gc(a2-3)Gal(b1-4)Glc
# Outline: as §1
# [30] = target: Neu5Gc(a2-3)Gal(b1-4)GlcNAc
# Outline: as §1
# [31] = target: Neu5Gc(a2-3)Gal(b1-4)[Fuc(a1-3)]GlcNAc
# Outline: as §1
# [32] = target: Neu5Gc(a2-3)Gal(b1-4)[Fuc(a1-4)]GlcNAc
# Outline: as §1
# [33] = target: Neu5Gc(a2-6)Gal(b1-4)GlcNAc
# Outline: as §1
# Neu5Gc(a2-6)GalNAc = target: Neu5Gc(a2-6)GalNAc
# Outline: as §1
binder,measurement,setting,value
B1,glycan array binding signal (z-score),[1],-0.523
same,glycan array binding signal (z-score),[2],0.278
same,glycan array binding signal (z-score),[3],-0.451
same,glycan array binding signal (z-score),[4],-0.414
same,glycan array binding signal (z-score),[5],0.09
same,glycan array binding signal (z-score),[6],0.096
same,glycan array binding signal (z-score),[7],-0.546
same,glycan array binding signal (z-score),[8],-0.18
same,glycan array binding signal (z-score),[9],-0.631
same,glycan array binding signal (z-score),Neu5Ac(a2-3)GalNAc,-0.457
same,glycan array binding signal (z-score),[10],-0.411
same,glycan array binding signal (z-score),[11],-0.433
same,glycan array binding signal (z-score),[12],-0.454
same,glycan array binding signal (z-score),[13],0.386
same,glycan array binding signal (z-score),Neu5Ac(a2-6)Gal,-0.601
same,glycan array binding signal (z-score),Neu5Ac(a2-6)Gal(b1-4)Glc,0.098
same,glycan array binding signal (z-score),[14],-0.391
same,glycan array binding signal (z-score),[15],-0.984
same,glycan array binding signal (z-score),[16],-0.107
same,glycan array binding signal (z-score),[17],-0.125
same,glycan array binding signal (z-score),[18],0.265
same,glycan array binding signal (z-score),Neu5Ac(a2-6)GalNAc,-0.529
same,glycan array binding signal (z-score),[19],-0.348
same,glycan array binding signal (z-score),Neu5Ac(a2-8)Neu5Ac,-0.283
same,glycan array binding signal (z-score),[20],-0.429
same,glycan array binding signal (z-score),[21],-0.352
same,glycan array binding signal (z-score),[22],-0.368
same,glycan array binding signal (z-score),[23],-0.132
same,glycan array binding signal (z-score),[24],-0.52
same,glycan array binding signal (z-score),[25],-1.03
same,glycan array binding signal (z-score),Neu5Ac(b1-6)GalNAc,0.038
same,glycan array binding signal (z-score),[26],-0.039
same,glycan array binding signal (z-score),[27],-0.372
same,glycan array binding signal (z-score),[28],-0.313
same,glycan array binding signal (z-score),[29],-0.226
same,glycan array binding signal (z-score),Neu5Gc(a2-3)Gal(b1-4)Glc,0.064
same,glycan array binding signal (z-score),[30],0.186
same,glycan array binding signal (z-score),[31],0.138
same,glycan array binding signal (z-score),[32],0.134
same,glycan array binding signal (z-score),[33],-0.372
same,glycan array binding signal (z-score),Neu5Gc(a2-6)GalNAc,-0.143

# Reformatted: entries from further up
binder | measurement | setting | value
B1 | glycan array binding signal (z-score) | Neu5Ac(a2-6)Gal | -0.601
same | glycan array binding signal (z-score) | [25] | -1.03
same | glycan array binding signal (z-score) | [32] | 0.134
